According to PubChem BioAssay AID652054 (National Center for Advancing Translational Sciences (NCATS), 2013):
Among all 360,000 compounds or so, about 9,100 (2.5%) were called active. Inconclusive results, whose numbers are uncertain, are shown with a selection of clear calls. No stated cut-off is given here; in the data, active means max response below about -50%; inconclusive means no clear call, values can overlap the other calls; inactive means above that.

Sequences of proteins named here, by UniProt entry; tags and fusion partners are left off.
UniProt P35462, whole entry, looked up: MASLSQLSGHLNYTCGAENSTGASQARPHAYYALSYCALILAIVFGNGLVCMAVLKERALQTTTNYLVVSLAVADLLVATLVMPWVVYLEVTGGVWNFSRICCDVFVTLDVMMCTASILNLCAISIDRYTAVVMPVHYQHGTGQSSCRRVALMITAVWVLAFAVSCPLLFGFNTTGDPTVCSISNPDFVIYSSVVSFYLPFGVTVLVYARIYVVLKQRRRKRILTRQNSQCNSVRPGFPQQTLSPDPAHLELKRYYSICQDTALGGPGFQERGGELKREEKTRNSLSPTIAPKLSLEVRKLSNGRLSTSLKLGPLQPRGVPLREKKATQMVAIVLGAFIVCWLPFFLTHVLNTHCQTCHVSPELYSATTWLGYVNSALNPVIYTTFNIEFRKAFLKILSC

Biological target: D(3) dopamine receptor (Homo sapiens) (UniProt P35462)
Assay: qHTS of D3 Dopamine Receptor Antagonist: qHTS
Conditions: D3R cells, DiscoveRx beta-arrestin luminescence, antagonist mode; active compounds read low
Procedure, shortened: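 Cells expressing the human receptor were seeded at 1500 cells/well, incubated overnight at 37 degrees C in 5% CO2, then exposed to library compounds with dopamine controls for 90 minutes at 37 degrees C before luminescent detection.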
On the % scale 0 is the no-effect control and ±100 the full control effect.

Max response, negative = inhibition, active:
CCc1cccc(C)c1NC(=O)COC(=O)Cc1ccsc1 -57.7%
Cc1cc(C(=O)NCCCn2ccnc2)sc1-c1ccccc1 -69.6%
Cc1ccc(C(c2nnnn2Cc2cccs2)N2CCN(C(=O)c3ccco3)CC2)cc1 (centres undefined) -51.7%
O=C(COc1ccccc1)NC(NC(=S)Nc1ccccc1C(=O)O)C(Cl)(Cl)Cl (centres undefined) -77.3%
O=C1C(=O)c2c(ccc3ccccc23)-c2ccccc21 -53.5%
CCOc1ccc(/C=N/N(C)c2ccccc2)cc1OC -53.5%
CC(N=Cc1cc([N+](=O)[O-])ccc1O)c1ccccc1 (centres undefined) -52%
COc1cc(NC(=O)CC[C@H]2O[C@@H](n3cnc4c(NC(=O)c5ccccc5)ncnc43)[C@H](O)[C@@H]2O)cc(OC)c1OC -51.9%
CC(=O)N(c1cccc(Br)c1)C1C=CS(=O)(=O)C1 (centres undefined) -66.9%
O=C(O)c1ccc2c(c1Nc1ccccc1)C(=O)c1ccccc1C2=O -56.2%
COC(=O)c1ccc(NC(=O)CN2CCN(c3ccccc3C)CC2)cc1 -77%
CN(c1ccc(C(=O)NCc2ccccn2)cc1)S(C)(=O)=O -116%

Max response, negative = inhibition, inconclusive:
COc1ccc(OC)c2sc(N(CCN(C)C)C(=O)c3cc(Cl)sc3Cl)nc12 -34.5%
CC(C)C[C@@H](COCc1ccc([N+](=O)[O-])cc1)N1CCN(C(=O)c2ccc(C(F)(F)F)cc2)CCC1=O -35.7%
COC(=O)[C@]12CCCCC=C1N(Cc1ccc3c(c1)OCO3)C(=O)[C@H](CC(=O)NCc1ccc(OC)c(OC)c1)C2 -42.5%
CCOC(=O)c1c(C)oc2c(CC(=O)c3ccccc3)c(Cl)c(O)c(O)c12 -30.3%
CNc1cccccc1=S -40.4%
N#Cc1cc2cc3c(cc2nc1N1CCCCC1)OCCO3 -37.4%
O=C(Nc1ccc(F)cc1)c1ccccc1 -32.8%
COc1ccccc1/C=C/C=C1\Oc2c(ccc(O)c2CN(C)C)C1=O -31.9%
CCc1ccc(C(=O)NNc2ccc(C)c(Cl)c2)cc1 -45.7%
O=[N+]([O-])c1ccccc1/C=C/CN1CCSCC1 -30.9%
O=C(C1=C[C@H](c2ccc(C(F)(F)F)cc2)C[C@H](OCc2ccc(CO)cc2)O1)N1CCN(Cc2ccccc2)CC1 -37.4%
O=C(NC1CCCC1)C(c1c[nH]c2ccccc12)N(C(=O)Cn1nnc(-c2ccc(Cl)cc2)n1)c1ccccc1 (centres undefined) -38.2%
CN1C(=O)C(O)(C2COC(C)(C)CC2=O)c2cc(Br)ccc21 (centres undefined) -41.5%
COc1ccc(C(=O)C[n+]2cccc(Br)c2)cc1 -34.9%
O=C(Nc1ccc(N2CCN(Cc3ccccc3F)CC2)cc1)c1ccccc1[N+](=O)[O-] -34.2%
CCNCC(=O)N1c2ccccc2CCc2ccc(NC(C)=O)cc21 -30.5%
CSc1nc(=O)[nH]nc1Sc1ccccc1 -41.5%
O=C(c1ccccc1)[C@@H]1[C@@H](C(=O)c2ccc(F)cc2)[C@@]2(C(=O)Nc3ccccc32)[C@H]2c3ccccc3C=CN12 -32.6%
COC(=O)CCC(=O)OC1(C)C(=O)C=C2C=C(C3CC3)N(Cc3ccccc3)C=C2C1=O (centres undefined) -37.8%
O=C(N1CCOCC1)C1(S(=O)(=O)c2ccccc2)CC=CC1 -36.8%
Cc1ccc2nc(-c3cccs3)oc(=O)c2c1 -33.4%
Cc1cnn(CCC(=O)NNC(=S)Nc2ccccc2)c1 -43.7%
COC(=O)c1ccc(CNC(=O)c2ccc(S(=O)(=O)N(C)c3ccccc3OC)cc2)cc1 -47.4%
Cc1ccc(S(=O)(=O)N2[C@@H](c3ccccc3F)C(C(=O)O)=CC[C@H]2c2cccc(Cl)c2)cc1 -33.4%
COc1ccc(C(CNC(=O)c2ccc(-c3ccccc3Cl)o2)N2CCOCC2)cc1 (centres undefined) -48.5%
CC(C)COCc1ccc(O)c2ncccc12 -49.5%
CCCC(OC(=O)CN1C(=O)COc2ccccc21)C(=O)NC1CCCC1 (centres undefined) -49.3%
O=C(OCc1c(F)cccc1Cl)c1cnc(Cl)c(Cl)c1 -37%
CN(Cc1ccccc1)C(=O)c1ccc(NC(=O)Cc2ccc(NC(=O)C3CCN(C(=O)CCc4ccccc4)CC3)cc2)cc1 -34.7%
O=C(Cn1c(=O)n(-c2ccccc2)c(=O)c2sccc21)N1CCCC1 -37.8%
O=C(CSc1nnc(-c2ccco2)n1-c1ccccc1)NCc1ccco1 -30.6%
O=C1NC[C@@H](c2ccccc2)OC(=O)[C@@H](Cc2ccc(F)cc2)CC/C=C/C[C@@H]1CC(=O)N(CCO)Cc1ccccc1 -39.4%
O=C(Cn1c(O)c(/C=C2\C=Nc3ccc(Br)cc32)sc1=O)N1CCCC1 -30.7%
O=C(CN1C(=O)NC(c2ccccc2)(c2ccccc2)C1=O)N1CCN(c2ccccc2F)CC1 -46.2%
COc1ccc(NC(=O)c2cccnc2C(=O)O)c(OC)c1 -35.6%
Cn1nc(C(=O)NCc2ccccc2)c2c1-c1ccccc1S(=O)(=O)C2 -38.4%
O=[N+]([O-])c1cc([N+](=O)[O-])c(Oc2cc(F)ccc2F)cc1NN1CCCCC1 -36.8%
CSc1ncc(Cl)c(C(=O)NCc2ccc3c(c2)OCO3)n1 -48.3%
COc1cc(-c2c(C#N)c(N)nc(SCc3ccncc3)c2C#N)cc(OC)c1OC -30.6%
COc1ccc(CN2CCSCC2)c(C)c1C -43.7%
CC(NS(=O)(=O)c1ccc2[nH]c(=O)[nH]c2c1)c1ccc(F)cc1 (centres undefined) -36.9%
COC(=O)c1ccc(CN2CCC(CO)(CCOc3ccccc3)CC2)cc1 -37.4%
CC(C)CCN(C)c1ccc(/C=N/n2cnnc2)cc1 -43.7%
CC(C)c1ccc(C(C)NCCS(=O)(=O)c2ccc(Cl)cc2)cc1 (centres undefined) -32%
O=S(=O)(O)c1nc2ccccc2n1CCOc1ccccc1 -44%
Cc1cccc(C)c1NC(=O)CSc1nnc(-c2ccco2)c(-c2ccco2)n1 -46.8%
O=C(CCN1CCOCC1)N/N=C/c1cc(Br)cc(Br)c1O -39.8%
COc1ccc(C2=Nc3ccccc3NC(=O)C2N(Cc2ccc(F)cc2)C(=O)c2ccco2)cc1 (centres undefined) -37.6%
CCCCn1c(N)c(N(C)C(=O)c2ccccc2Oc2ccccc2)c(=O)[nH]c1=O -35.8%
CCC(=O)Oc1ccc(C(=O)Nc2ccc3c(c2)C(=O)N(C2CCCCC2)C3=O)cc1 -33.8%
CCOC(=O)C1CCN(C(=O)c2c(C)oc3c2C(=O)c2ccccc2C3=O)CC1 -50%
COc1cccc(CNC(=O)COC(=O)c2cc([N+](=O)[O-])ccc2N2CCCC2)c1 -31.6%
COc1ccc(Br)c(Cn2c(C)c(C(=O)NCc3ccccc3C(F)(F)F)sc2=O)c1 -30.3%
C=CCC[C@@H](Cc1ccc(F)cc1)C(=O)OC[C@@H]1CCCN1C(=O)[C@@H](CC=C)CC(=O)N(CCO)Cc1ccccc1 -33.6%

6 consecutive compounds out of the list so far:
Max response, negative = inhibition, inconclusive:
O=C1NC[C@@H](c2ccccc2)OC(=O)[C@@H](Cc2ccc(F)cc2)CC/C=C/C[C@@H]1CC(=O)N(CCO)Cc1ccccc1 -39.4%
O=C(Cn1c(O)c(/C=C2\C=Nc3ccc(Br)cc32)sc1=O)N1CCCC1 -30.7%
O=C(CN1C(=O)NC(c2ccccc2)(c2ccccc2)C1=O)N1CCN(c2ccccc2F)CC1 -46.2%
COc1ccc(NC(=O)c2cccnc2C(=O)O)c(OC)c1 -35.6%
Cn1nc(C(=O)NCc2ccccc2)c2c1-c1ccccc1S(=O)(=O)C2 -38.4%
O=[N+]([O-])c1cc([N+](=O)[O-])c(Oc2cc(F)ccc2F)cc1NN1CCCCC1 -36.8%

Next part:

Max response, negative = inhibition, inactive:
CCOC(=O)C1(S(=O)(=O)c2ccc(Cl)cc2)CCN(Cc2ccc(Cl)cc2)CC1 17%
CCN(CC)C(=O)C(=O)Nc1ccc(OC)c(Cl)c1 8.72%
CC(=O)NN=C(C)c1ccc(NC(=O)C2CC2)cc1 3.77%
O=C(Nc1nc(-c2ccc(-c3ccccc3)cc2)cs1)C1CCCO1 (centres undefined) -2.47%
CCN(CC)c1ccc(/C=C/C(=O)c2cccnc2)cc1 -6.69%
CCCn1c(-c2nonc2N)nc2ccccc21 9.15%
COc1ccc(/C=C2\CC/C(=C\c3ccc(OC)cc3OC)C2=O)c(OC)c1 35.1%
OCCCNc1ncnc2c1ncn2[C@H]1CN(Cc2ccncc2)C[C@@H](CO)O1 7.62%
COc1ccc(NC(=O)C(C2CC2)n2c(=O)c(-c3cc4ccccc4[nH]3)nc3ccccc32)cc1 (centres undefined) -20.9%
OCCNCc1cc(Br)ccc1OCc1ccc(Cl)cc1Cl 22.7%
O=C(COc1ccccc1F)N1CCc2ccccc2C1 10.8%
O=C(O)c1ccc2c(c1)C(=O)N(CCCCCCCN1C(=O)c3ccc(C(=O)O)cc3C1=O)C2=O -6.07%
Cc1nn(Cc2ccccc2)c(C)c1CCC(=O)O 28.1%
CN(C(=O)c1cnc(N2CCN(c3ncccn3)CC2)c2ccccc12)c1ccc(Cl)cc1 -5.72%
O=C1C2C3c4ccccc4C(c4ccccc43)[C@@H]2c2nc3ccccc3n21 (some centres undefined) 34.8%
CCCCCNC(=O)C1C(=O)Nc2ccccc2C(=O)N1C(C)(C)C (centres undefined) -19.2%
CCc1ccc(NC(=S)N(Cc2cccc(Br)c2)CC2CCC(C(=O)O)CC2)cc1 (centres undefined) -15.3%
CCOCCOc1nc2c(c(=O)n(C)c(=O)n2C)n1CCc1ccccc1 28.2%
